Values from PubChem BioAssay AID602196 (INSERM, 2012)

Assay: 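Modifiers of cisplatin sensitivity in A549 cells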
Cell system: human A549 lung cancer cells
Reagent: siRNA pair against human genes
Timing: 48 h transfection before cisplatin; time from cisplatin to read-out not stated
Treatment: cisplatin at a dose killing half of control-siRNA cells; exact dose and duration not given
Detection: 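Shift in cisplatin death relative to control siRNA, from -50 (all cells die) to +50 (no cells die); siRNAs harmful on their own scored 0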
Scale: two-siRNA summed score (-2 to +2): higher = both siRNAs protect from cisplatin killing; -2 means both sensitise; mean protection from cisplatin (shift in death) and protection from cisplatin (shift in death), siRNA C and protection from cisplatin (shift in death), siRNA D: higher = protection from cisplatin killing
Hit rule: 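siRNAs harmful alone (LDH or WST-1) get 0; others get +1 for less and -1 for more cisplatin killing; genes are active when the two siRNAs give the same sign, summing to ±2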
Meaning of the calls: active = both siRNAs shift cisplatin killing the same way; inactive = no consistent shift, or siRNA harmful alone
Shown is an unselected part of about 23,000 reagents tested. 455 of all reagents (2%) count as active. 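Active includes both protection and sensitisation; some change values fall well beyond the stated -50 to +50 range.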 The numbers tell different reagents against one gene apart. No sequences are given here. Not stated in the record: the amount of reagent.

gene symbol,reagent no.,two-siRNA summed score (-2 to +2),mean protection from cisplatin (shift in death) (%),"protection from cisplatin (shift in death), siRNA C (%)","protection from cisplatin (shift in death), siRNA D (%)",activity call
SERTAD2 (SERTA domain containing 2),1,1,9.7,7.7,11.8,inactive
BICRAL (BICRA like chromatin remodeling complex associated protein),1,0,9.4,9.8,9.1,inactive
LOC440122,1,0,-1.8,-14.5,10.8,inactive
NDUFAF5 (NADH:ubiquinone oxidoreductase complex assembly factor 5),1,0,10,5.7,14.3,inactive
OR5AP2 (olfactory receptor family 5 subfamily AP member 2),1,-1,-10,-16.6,-3.5,inactive
HPR (haptoglobin-related protein),1,1,14.2,34.1,-5.8,inactive
MCM9,1,0,0.9,4.6,-2.9,inactive
GPR4 (G protein-coupled receptor 4),1,1,15,-2.4,32.3,inactive
DRAXIN (dorsal inhibitory axon guidance protein),1,1,-0.3,-10.1,9.4,inactive
KCNH8 (potassium voltage-gated channel subfamily H member 8),1,1,23.1,25.1,21.1,inactive
FAM234A (family with sequence similarity 234 member A),1,1,9.4,14.3,4.5,inactive
MBNL1-AS1 (MBNL1 antisense RNA 1),1,0,8.4,12.8,3.9,inactive
LEPROTL1 (leptin receptor overlapping transcript like 1),1,0,7.7,4,11.4,inactive
PARD3 (par-3 family cell polarity regulator),1,1,18.6,23.7,13.6,inactive
LOC389101,1,1,10.9,9.7,12.1,inactive
LOC440334,1,2,17.8,15.3,20.3,active
PRPS1L1 (phosphoribosyl pyrophosphate synthetase 1 like 1),1,0,14.4,11.1,17.7,inactive
LOC389405 (retired record),1,0,13.4,13.8,13.1,inactive
OR8B8 (olfactory receptor family 8 subfamily B member 8),1,1,18.6,30.6,6.7,inactive
"DDAH2 (DDAH family member 2, ADMA-independent)",1,-1,-4.3,-16.6,8,inactive
PTPN2 (protein tyrosine phosphatase non-receptor type 2),1,1,5.9,22.9,-11.2,inactive
HIVEP3 (HIVEP zinc finger 3),1,0,1.8,4.2,-0.6,inactive
NOL3 (nucleolar protein 3),1,-1,-9.1,-3.1,-15.1,inactive
PLEKHG2 (pleckstrin homology and RhoGEF domain containing G2),1,0,-4.4,-9.4,0.6,inactive
LOC286140,1,0,12.1,4.4,19.8,inactive
VN1R3 (vomeronasal 1 receptor 3),1,0,1.9,2.9,0.9,inactive
CYP2U1 (cytochrome P450 family 2 subfamily U member 1),1,0,18.2,14.3,22.1,inactive
PER1 (period circadian regulator 1),1,-1,-13.6,-35,7.8,inactive
LOC442166,1,0,-5.2,-4.2,-6.2,inactive
PRDX5 (peroxiredoxin 5),1,0,10.7,3.3,18.1,inactive
FGF1 (fibroblast growth factor 1),1,-1,-7,-13.8,-0.1,inactive
FFAR1 (free fatty acid receptor 1),1,0,7.2,9.5,4.9,inactive
CCDC57 (coiled-coil domain containing 57),1,-1,3.1,23.4,-17.3,inactive
CCDC57 (coiled-coil domain containing 57),2,0,11.5,4.2,18.8,inactive
HEPACAM (hepatic and glial cell adhesion molecule),1,-1,0.7,25.8,-24.3,inactive

Next part (5 carried over from the part before).
gene symbol,reagent no.,two-siRNA summed score (-2 to +2),mean protection from cisplatin (shift in death) (%),"protection from cisplatin (shift in death), siRNA C (%)","protection from cisplatin (shift in death), siRNA D (%)",activity call
FGF1 (fibroblast growth factor 1),1,-1,-7,-13.8,-0.1,inactive
FFAR1 (free fatty acid receptor 1),1,0,7.2,9.5,4.9,inactive
CCDC57 (coiled-coil domain containing 57),1,-1,3.1,23.4,-17.3,inactive
CCDC57 (coiled-coil domain containing 57),2,0,11.5,4.2,18.8,inactive
HEPACAM (hepatic and glial cell adhesion molecule),1,-1,0.7,25.8,-24.3,inactive
ABCA1 (ATP binding cassette subfamily A member 1),1,-2,-9.1,-4.4,-13.8,active
PREPL (prolyl endopeptidase like),1,0,1.4,10.3,-7.4,inactive
LOC121952,1,0,5.1,11.9,-1.6,inactive
LOC400475,1,0,-3.8,-3.8,-3.9,inactive
ZP4 (zona pellucida glycoprotein 4),1,-1,-12.1,1.5,-25.8,inactive
OXCT2 (3-oxoacid CoA-transferase 2),1,-1,-11.2,-18.1,-4.4,inactive
FKBPL (FKBP prolyl isomerase like),1,0,4.1,11.3,-3.1,inactive
FRAT1 (FRAT regulator of Wnt signaling pathway 1),1,0,5.2,9.4,1,inactive
ZNF277 (zinc finger protein 277),1,0,7.7,25.2,-9.8,inactive
LOC388117,1,0,5.4,15.4,-4.5,inactive
LOX (lysyl oxidase),1,0,7.2,5.4,9,inactive
TGS1 (trimethylguanosine synthase 1),1,0,1.8,1.5,2,inactive
EOGT (EGF domain specific O-linked N-acetylglucosamine transferase),1,0,4.7,0,9.4,inactive
DLL1 (delta like canonical Notch ligand 1),1,0,8.8,10.6,7,inactive
SRM (spermidine synthase),1,1,6.1,17.4,-5.3,inactive
LOC389275,1,0,4.9,1.1,8.7,inactive
ANKFY1 (ankyrin repeat and FYVE domain containing 1),1,1,9,4.9,13.1,inactive
ARSA (arylsulfatase A),1,0,-1.4,-1.5,-1.2,inactive
SLC25A26,1,0,3.8,-0.2,7.7,inactive
TAS2R20 (taste 2 receptor member 20),1,1,11.6,4.7,18.6,inactive
"PMPCA (peptidase, mitochondrial processing subunit alpha)",1,0,-0.8,-2.4,0.9,inactive
PCDHA13 (protocadherin alpha 13),1,0,3.2,3.7,2.7,inactive
